# Measurements as given in PubChem BioAssay AID1671190 (National Center for Advancing Translational Sciences (NCATS), 2021).
# Chains of the proteins cited; added tags and fusions are not shown. Lines headed by an entry give the natural chain unless they say otherwise; changes in a name come on top.
# UniProt P18054: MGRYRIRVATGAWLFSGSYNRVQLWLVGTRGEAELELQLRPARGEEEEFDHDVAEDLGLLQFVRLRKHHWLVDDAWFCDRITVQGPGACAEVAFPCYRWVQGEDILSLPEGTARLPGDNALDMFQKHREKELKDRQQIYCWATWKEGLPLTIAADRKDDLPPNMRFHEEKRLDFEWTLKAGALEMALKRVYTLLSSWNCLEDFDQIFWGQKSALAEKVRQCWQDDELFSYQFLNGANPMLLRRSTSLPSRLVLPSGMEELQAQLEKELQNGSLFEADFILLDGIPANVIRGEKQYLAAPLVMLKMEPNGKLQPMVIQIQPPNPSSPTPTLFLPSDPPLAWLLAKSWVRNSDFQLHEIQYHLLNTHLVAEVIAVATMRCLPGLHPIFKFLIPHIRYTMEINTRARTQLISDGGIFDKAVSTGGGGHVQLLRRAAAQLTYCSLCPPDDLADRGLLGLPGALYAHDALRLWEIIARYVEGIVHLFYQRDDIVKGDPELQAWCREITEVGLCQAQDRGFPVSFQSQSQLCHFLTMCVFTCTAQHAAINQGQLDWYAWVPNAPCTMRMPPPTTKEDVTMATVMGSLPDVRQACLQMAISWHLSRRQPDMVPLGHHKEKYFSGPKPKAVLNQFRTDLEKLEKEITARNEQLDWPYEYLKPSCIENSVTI
# Several values for one entry are separate records, joined by “and”; a condition that tells them apart may be missing. Identical values can stand only once. Hit rate of the full screen: of about 580,000 compounds, about 6,100 (1.1%) were called active. The shares of active, inactive and inconclusive entries below differ from those in the screen. Calls come from the whole dose curve; as a rule, active = well fitted inhibition curve with a large enough effect; inconclusive = small, poorly fitted or top-dose-only effect, or another doubt; inactive = no such curve, though single readings can be large or run the other way. Potencies of inconclusive entries are doubtful fits and often do not repeat.
# Biological target: Polyunsaturated fatty acid lipoxygenase ALOX12 (Homo sapiens) (UniProt P18054)
# Experiment: Primary qHTS assay for inhibitors of human arachidonate 12S-lipoxygenase (ALOX12): Round 2
# Details: purified 12hLO, xylenol orange hydroperoxide absorbance; activity change, negative = inhibition: at 108 µM (top of the series) unless noted
# How it was run: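 Hydroperoxide product was detected by ferrous iron/xylenol orange as the 573 to 405 nm absorbance ratio. Arachidonic acid at 40 uM (final) was turned over for 30 min at room temperature by 150 nM human 12hLO, pH 7.0 Hepes buffer, after 15 min compound preincubation.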
# % is set by controls: 0 for no effect and ±100 for the full control effect; potency is the fitted concentration of half-maximal effect.
Compound,Potency,"activity change, negative = inhibition"
CN(C)CCCNCc1cccs1,"inconclusive: 28.2 µM [inhibitor, partial curve, poor fit]",–
NC(=O)C(Sc1ncc(C(F)(F)F)cc1Cl)c1ccccc1 (centres undefined),"inconclusive: 100 µM [inhibitor, single point]",–
O=C(CSCc1nc2ccccc2s1)NC1CCCCC1,–,inactive: -21.9%
CCC(=O)NC(=S)Nc1ccccc1F,"inconclusive: 15.8 µM [inhibitor, full curve, poor fit]",–
CCCN1CNC(=S)N(c2cc(C)ccc2C)C1,"inconclusive: 44.7 µM [inhibitor, partial curve, poor fit]",–
O=S(=O)(Nc1ccccc1N1CCOCC1)c1c(F)cc(F)cc1Br,"inconclusive: 89.1 µM [inhibitor, single point]",–
O=C(NCc1ccccc1)c1cc(-c2ccncc2)nc2ccccc12,"inconclusive: 112 µM [inhibitor, single point]",–
CC(C)(C)C1=Nn2c(nnc2-c2ccccn2)SC1,"inconclusive: 7.94 µM [inhibitor, partial curve]",–
CN(C)CCCN(C(=O)c1ccc2c(c1)CCCC2)c1nc2ccc(F)cc2s1,"inconclusive: 44.7 µM [inhibitor, partial curve, poor fit]",–
Cc1ccc(CNC(=S)NCc2ccc(F)cc2)cc1,"inconclusive: 25.1 µM [inhibitor, partial curve, poor fit]",–
CCN1C(=O)/C(=C\N2CCN(c3ccccc3)CC2)SC1=S,"inconclusive: 3.98 µM [inhibitor, full curve, poor fit]",–
Cc1ccc(NC(=O)c2cc(-c3cccnc3)nc3ccc(C)cc23)nc1,–,inactive: -3.77%
CCOC(=O)c1ccc(NC(=O)c2ccc3c(c2)N(C)C2CCCCN2C3=O)cc1 (centres undefined),"inconclusive: 79.4 µM [inhibitor, partial curve, poor fit]",–
COc1ccccc1CNc1nc(NCc2ccccc2)nc2ccsc12,"inconclusive: 70.8 µM [inhibitor, partial curve, poor fit]",–
CCN(CC)c1nc(Nc2ccccc2)nc(Oc2ccc(=O)n(C)n2)n1,–,inactive: 0%
Cc1ccc(NC2=NC(c3ccccc3)n3c(nc(C)cc3=O)N2)cc1 (centres undefined),"inconclusive: 50.1 µM [inhibitor, partial curve, poor fit]",–
O=C([C@@H]1C[C@H](Oc2cccnc2)CN1S(=O)(=O)c1cccc(F)c1)N1CCCC1,–,inactive: 28.4%
CN(CCO)c1ccc(C=NNc2ccc([N+](=O)[O-])cc2S(=O)(=O)Nc2ccccc2C(=O)O)cc1,active: 39.8 µM,–
Cc1cc(C)c(C(N)=O)c(Cl)n1,"inconclusive: 112 µM [inhibitor, single point]",–
CC/C(=C\C1CCCCC1)C(NP(=O)(c1ccccc1)c1ccccc1)c1ccccc1 (centres undefined),"inconclusive: 50.1 µM [inhibitor, partial curve, poor fit]",–
COc1ccc(C(=O)O)cc1N1C(=O)Nc2ccccc2N1O,active: 44.7 µM,–
Cc1cccc(C(=O)NCc2sccc2C)n1,"inconclusive: 17.8 µM [inhibitor, partial curve, poor fit]",–

Compound,Potency,"activity change, negative = inhibition"
O=C(C1CC1)N(Cc1ccc2c(c1)CN(S(=O)(=O)c1ccc(F)cc1)CCO2)c1ccccc1,"inconclusive: 126 µM [inhibitor, single point]",–
COc1ccc(OCC(=O)O/N=C(\N)Cc2ccc(Cl)cc2)cc1,–,inactive: -2.56%
Cc1ccc(-n2nc(C)c([C@H]3C=C[C@@H](OC(=O)Nc4cccc(F)c4)C3)c2C)cc1Cl,"inconclusive: 22.4 µM [inhibitor, full curve, poor fit]",–
Cc1c(NC(=S)NC(=O)C(c2ccccc2)c2ccccc2)cccc1C(=O)O,"inconclusive: 0.0794 µM [inhibitor, full curve, poor fit]",–
CCOC(=O)c1cc(-c2ccc(S(=O)(=O)N3CCN(c4cc(C)ccc4C)CC3)s2)on1,–,inactive: -0.42%
N#Cc1nc(-c2ccccc2F)oc1NCCc1ccccc1,"inconclusive: 50.1 µM [inhibitor, partial curve, poor fit] and inconclusive: 35.5 µM [inhibitor, partial curve, poor fit]",–
O=C(O)CNS(=O)(=O)c1cc(C(=O)O)ccc1C(=O)O,"inconclusive: 14.1 µM [inhibitor, full curve, poor fit]",–
COC(=O)CSc1nnc(CNS(=O)(=O)c2ccc(C)cc2)n1C,–,inactive: -4.21%
CCN(CC)CCNCC(=O)Nc1ccc(Oc2ccccc2)cc1,"inconclusive: 50.1 µM [inhibitor, partial curve, poor fit]",–
C=CCc1c(C)nc(SC(C)C)[nH]c1=O,–,inactive: 63.6% [at 57.4 µM]
Cc1ccc(C(=O)Nc2cccc(C(=O)OCc3cc(=O)n4c5c(sc4n3)CCCC5)c2)cc1,–,inactive: -15.4%
O=C(Nc1ccc2c(c1)OCCO2)c1ncoc1-c1cccc(Cl)c1,"inconclusive: 28.2 µM [inhibitor, full curve, poor fit]",–
COc1ccc(-c2nc(C3CC3)nc3c2CCN(C(=O)c2ccc(C(F)(F)F)cc2)CC3)cc1,"inconclusive: 35.5 µM [inhibitor, partial curve, poor fit]",–
NC(=O)c1c(Nc2nc3c(F)cccc3s2)sc2c1CCCC2,active: 28.2 µM,–
COC(=O)C1=C(C)N=C2SC(C)C(=O)N2C1c1ccc(C(=O)OC)cc1 (centres undefined),"inconclusive: 31.6 µM [inhibitor, single point]",–
O=C(c1ccccc1)N1CCN(C(=O)c2cc(-c3ccccn3)nc3ccccc23)CC1,"inconclusive: 35.5 µM [inhibitor, partial curve, poor fit]",–
CC(NC(=O)c1nccnc1N)c1ccccc1 (centres undefined),"inconclusive: 4.47 µM [inhibitor, full curve, poor fit]",–
COc1ccc(C(=O)/C=C/c2ccc(N3CCCCC3)c([N+](=O)[O-])c2)cc1,"inconclusive: 7.08 µM [inhibitor, full curve]",–
NC(=O)c1ccc(NC(=O)C(F)(OC(F)(F)C(F)(F)C(F)(F)F)C(F)(F)F)cc1 (centres undefined),–,inactive: 3.79%
Cc1ccc(Cn2nnc3c(=O)[nH]c(C4CCN(S(=O)(=O)Cc5ccccc5)CC4)nc32)cc1,"inconclusive: 56.2 µM [inhibitor, partial curve, poor fit]",–
O=S(=O)(CCc1ccncc1)C1Cc2cccc3cccc1c23 (centres undefined),"inconclusive: 100 µM [inhibitor, partial curve, poor fit]",–
Cc1c(-n2cc(C(=O)O)c(=O)c3cc(F)c(N4CCCC4)c(F)c32)c(=O)n(-c2ccccc2)n1C,"inconclusive: 6.31 µM [inhibitor, partial curve, poor fit]",–

Compound,Potency,"activity change, negative = inhibition"
Cn1cc(Br)c(C(=O)NC(=S)Nc2ccc(S(N)(=O)=O)cc2)n1,"inconclusive: 39.8 µM [inhibitor, partial curve, poor fit]",–
CCC(C)Sc1cc(-c2nc3ccc(Cl)cn3c2NC2CCCCC2)ccc1OC (centres undefined),"active: 39.8 µM and inconclusive: 89.1 µM [inhibitor, single point]",–
O=C1CC2(CCN(C(=O)c3ccc4c(c3)OCO4)CC2)Oc2ccccc21,–,inactive: 20.4%
COc1ccccc1NC(=O)NC1(C(=O)N2CCC(O)CC2)CCCCC1,"inconclusive: 44.7 µM [inhibitor, partial curve, poor fit]",–
COCCCN1C(=O)C(=O)/C(=C(/O)c2ccc(C)cc2)C1c1ccccc1 (centres undefined),active: 7.08 µM,–
CN(C)c1ccc(N=Nc2ccccc2C(=O)OCC(=O)N(C)c2ccccc2)cc1,–,inactive: -0.664%
CC(C)(C)NC(=O)/C(=C/c1cccnc1)NC(=O)c1ccco1,"inconclusive: 89.1 µM [inhibitor, partial curve, poor fit]",–
Fc1ccc(COc2cccc3cccnc23)cc1,–,inactive: -1.01%
C#CCOCCOCCOCCNc1nc(N2CCN(C(=O)CCCCCCCCCCNC(=O)Cn3cc(C[C@@H](C)O)nn3)CC2)nc(N2CCN(C(=O)CCCCCCCCCCNC(=O)[C@H](CO)n3cc(CCCSC)nn3)CC2)n1,"inconclusive: 50.1 µM [inhibitor, partial curve, poor fit]",–
COc1ccc2nc(N(CCN(C)C)C(=O)/C=C/c3cccs3)sc2c1,"inconclusive: 56.2 µM [inhibitor, partial curve, poor fit]",–
CCOc1ccccc1/C=N/n1c(COc2ccccc2)n[nH]c1=S,"inconclusive: 44.7 µM [inhibitor, partial curve]",–
Cc1cc(NC(=O)c2ccoc2C)no1,"inconclusive: 10 µM [inhibitor, full curve, poor fit]",–
Cc1ccnc(SCc2cn3c(C)cc(C)nc3n2)n1,"inconclusive: 100 µM [inhibitor, partial curve, poor fit]",–
O=C(CSc1nnc(-c2ccc(Cl)cc2)n1Cc1ccco1)N1CCCC1,"inconclusive: 44.7 µM [inhibitor, partial curve, poor fit]",–
O=C(O)c1ccc(-c2cccc(Cl)c2)o1,–,inactive: -21.5%
O=C(NCc1ccccc1)c1ccccc1OC1CN(Cc2ccc(F)cc2)C1,"inconclusive: 8.91 µM [inhibitor, partial curve, poor fit]",–
CCOC(=O)C1(CCOC)CCN(Cc2ccc(COC)o2)CC1,–,inactive: -1.07%
Cn1c(SCC(=O)Nc2ccc(F)cc2)nc2c(c1=O)SCC2,"inconclusive: 112 µM [inhibitor, single point]",–
Cc1cnc(C)c(N2CCC(Oc3ccc4c(cnn4CCC(=O)O)c3)CC2)n1,"inconclusive: 31.6 µM [inhibitor, full curve, poor fit]",–
O=C(CN1CCN(c2nc(-c3ccccn3)nc3scc(-c4ccccc4)c23)CC1)N1CCCC1,"inconclusive: 44.7 µM [inhibitor, partial curve, poor fit]",–
